Data from PMC7790228.
Results are given in words; binding and its absence hold for the method and conditions named. Binding seen in cells or lysates may run through a third protein. Some results given as binding are weak or reduced against the parent protein; the word gives no strength.

Protein sequences, listed by entry. Tags and fused reporters are not part of them.
UniProt Q92734: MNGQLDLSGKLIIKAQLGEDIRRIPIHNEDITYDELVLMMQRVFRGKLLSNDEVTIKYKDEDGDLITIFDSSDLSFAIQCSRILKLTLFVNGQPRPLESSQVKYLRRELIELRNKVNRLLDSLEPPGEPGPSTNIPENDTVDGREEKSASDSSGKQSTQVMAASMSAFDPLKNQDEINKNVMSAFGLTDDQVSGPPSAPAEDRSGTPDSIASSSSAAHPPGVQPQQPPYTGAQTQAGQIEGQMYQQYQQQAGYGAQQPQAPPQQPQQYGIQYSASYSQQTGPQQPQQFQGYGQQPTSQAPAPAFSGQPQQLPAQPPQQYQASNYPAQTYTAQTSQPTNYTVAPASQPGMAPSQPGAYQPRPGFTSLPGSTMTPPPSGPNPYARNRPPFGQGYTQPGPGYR

Columns and labels:
[1] = target: TRK-Fused Gene (TFG), endogenous (human (endogenous in HeLa and HEK293T)) (UniProt Q92734); experiment: co-IP; HeLa whole cell extracts, SeV infection or Poly(I:C) transfection for indicated times; endogenous TFG immunoprecipitated, blots for endogenous TRAF3 and TBK1
[2] = target: TRK-Fused Gene (TFG), endogenous (human (endogenous in HeLa and HEK293T)) (UniProt Q92734); experiment: co-IP; HEK293T whole cell extracts, SeV infection; endogenous TFG immunoprecipitated, blots for endogenous mTOR and TBK1

B1: TANK-Binding Kinase (TBK1), endogenous (enzyme, UniProt Q9UHD2 1-729)
chain: MQSTSNHLWLLSDILGQGATANVFRGRHKKTGDLFAIKVFNNISFLRPVDVQMREFEVLKKLNHKNIVKLFAIEEETTTRHKVLIMEFCPCGSLYTVLEEPSNAYGLPESEFLIVLRDVVGGMNHLRENGIVHRDIKPGNIMRVIGEDGQSVYKLTDFGAARELEDDEQFVSLYGTEEYLHPDMYERAVLRKDHQKKYGATVDLWSIGVTFYHAATGSLPFRPFEGPRRNKEVMYKIITGKPSGAISGVQKAENGPIDWSGDMPVSCSLSRGLQVLLTPVLANILEADQEKCWGFDQFFAETSDILHRMVIHVFSLQQMTAHKIYIHSYNTATIFHELVYKQTKIISSNQELIYEGRRLVLEPGRLAQHFPKTTEENPIFVVSREPLNTIGLIYEKISLPKVHPRYDLDGDASMAKAITGVVCYACRIASTLLLYQELMRKGIRWLIELIKDDYNETVHKKTEVVITLDFCIRNIEKTVKVYEKLMKINLEAAELGEISDIHTKLLRLSSSQGTIETSLQDIDSRLSPGGSLADAWAHQEGTHPKDRNVEKLQVLLNCMTEIYYQFKKDKAERRLAYNEEQIHKFDKQKLYYHATKAMTHFTDECVKKYEAFLNKSEEWIRKMLHLRKQLLSLTNQCFDIEEEVSKYQEYTNELQETLPQKMFTASSGIKHTMTPIYPSSNTLVEMTLGMKKLKEEMEGVVKELAENNHILERFGSLTMDGGLRNVDCL
[1]
  binding: binds
[2]
  binding: binds
